Data from PubChem BioAssay AID2551 (National Center for Advancing Translational Sciences (NCATS), 2010).
Among all 310,000 compounds or so, about 17,000 (5.5%) were called active. This list was built around the results that the source calls inconclusive (neither active nor inactive); the mix of calls is not that of the screen. The call rests on the fitted dose curve; in most records, active means well fitted inhibition curve with a large enough effect; inconclusive means small, poorly fitted or top-dose-only effect, or effect the other way; inactive means no such curve, though single readings can be large or run the other way. Where the call is inconclusive, the potency comes from a doubtful curve fit.

By UniProt entry, the sequences of proteins in these tests, tags left out. Where a name states a change or a piece, a line headed by the entry shows the natural chain unless it says otherwise.
UniProt P51450: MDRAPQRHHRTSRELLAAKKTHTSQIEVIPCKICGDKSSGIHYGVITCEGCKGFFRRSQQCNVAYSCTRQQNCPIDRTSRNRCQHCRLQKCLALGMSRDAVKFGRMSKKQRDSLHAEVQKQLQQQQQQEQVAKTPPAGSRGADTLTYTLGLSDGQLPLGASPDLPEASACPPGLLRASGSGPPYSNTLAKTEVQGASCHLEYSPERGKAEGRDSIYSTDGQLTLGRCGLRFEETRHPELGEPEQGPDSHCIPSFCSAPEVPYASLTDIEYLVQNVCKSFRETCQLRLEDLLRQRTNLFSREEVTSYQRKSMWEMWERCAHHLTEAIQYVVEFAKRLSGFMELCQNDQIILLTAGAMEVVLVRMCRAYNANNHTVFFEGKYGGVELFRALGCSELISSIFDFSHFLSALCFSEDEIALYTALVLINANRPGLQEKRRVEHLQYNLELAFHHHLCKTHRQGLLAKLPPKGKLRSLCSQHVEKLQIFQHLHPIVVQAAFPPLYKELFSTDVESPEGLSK

Target: Nuclear receptor ROR-gamma (Mus musculus) (UniProt P51450)
Assay: qHTS for inhibitors of ROR gamma transcriptional activity; further: nearly all actives have a fitted effect of over 60% in size
Settings: Drosophila S2 Gal4-RORgamma UAS-luciferase reporter, 20 h; series mostly up to 53.6 µM
Procedure, shortened: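 Read-out: Photinus luciferase luminescence; inhibitors lower reporter signal. Insect Schneider cells with Gal4-ROR gamma fusion under metallothionein promoter, UAS reporter; 700 uM final copper sulfate induction, 20 hr, ambient temperature.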
Potency means the concentration at half of the fitted maximal effect.

| SMILES | Potency |
| --- | --- |
| Cc1ccc2nc3sc(C(=O)N4CCOCC4)c(N)c3cc2c1 | inconclusive: 35.5 µM [inhibitor, single point] |
| CCc1nc(Nc2ccc(OC)cc2OC)c2oc3ccccc3c2n1 | inconclusive: 22.4 µM [inhibitor, single point] |
| Cc1cc(OC(C)C(=O)NNC(=O)Nc2ccc(F)cc2F)cc(C)c1Cl (stereo unspecified) | inactive |
| CC(=O)c1cccc(N(C(=O)c2ccco2)C(C(=O)NC2CCCCC2)c2ccc(C)o2)c1 (stereo unspecified) | inconclusive: 0.0282 µM [activator, full curve, poor fit] |
| O=C(NCCN1CCCCCC1)C1CCC(CNS(=O)(=O)c2cccc3cccnc23)CC1 (stereo unspecified) | inactive |
| CNC(=O)CC1C(=O)N(c2ccc(Cl)cc2)C(=S)N1CCc1ccc(OC)c(OC)c1 (stereo unspecified) | inconclusive: 20 µM [inhibitor, single point] |
| Nc1nonc1-n1nnc(C(=O)N/N=C/c2cc(Br)ccc2O)c1CNc1ccccc1 | active: 5.01 µM |
| COc1ccc(-c2cc3c(=O)n(CC(=O)Nc4cccc(Cl)c4)nc(C)n3n2)cc1 | inactive |
| N=c1n(CC(=O)O)c2ccccc2n1Cc1ccccc1Cl | inconclusive: 0.708 µM [inhibitor, single point] |
| CC1C/C(=N\NC(=S)NC(C)C)CC(C)(C)C1 (stereo unspecified) | active: 1.58 µM |
| CC(C)C(=O)NC(=S)/C=C1/N(C)c2ccccc2C1(C)C | active: 3.55 µM |
| Cn1cc(/C=N/NC(=O)COc2ccccc2[N+](=O)[O-])c2ccccc21 | inconclusive: 35.5 µM [inhibitor, single point] |
| COc1cccc(OC)c1C(=O)Nc1ccccc1N1CCCCC1 | inconclusive: 12.6 µM [activator, single point] |
| Cc1ccc(NC(=O)c2cc(N3C(=O)C=CC3=O)ccc2N2CCOCC2)cc1Cl | active: 5.62 µM |
| COc1ccc2c(c1)-c1c(sn(-c3ccc(OC)c(OC)c3)c1=S)C(C)(C)N2 | inconclusive: 10 µM [inhibitor, partial curve] |
| CC(C)CC(=O)Nc1nnc(CCc2ccccc2)s1 | inconclusive: 8.91 µM [activator, partial curve, poor fit] |
| CC(C)(C)NC(=O)c1oc2ccccc2c1COc1ccccc1 | inconclusive: 25.1 µM [inhibitor, single point] |
| Cc1nc2ccccc2cc1OCc1ccccc1 | inconclusive: 35.5 µM [inhibitor, single point] |
| Cc1cc(C)nc(NN=C2CCCC2)n1 | inconclusive: 8.91 µM [inhibitor, partial curve, poor fit] |
| COC(=O)CNC(=O)C1(C)C=CC2(CCCCC2)N1C(C)=O (stereo unspecified) | inactive |
| Cc1ccc(C(=O)Nc2cccc([N+](=O)[O-])c2)cc1S(=O)(=O)Nc1ccc(NC(=O)c2ccccc2)cc1 | inconclusive: 8.91 µM [activator, partial curve] |
| CC(=O)N1CCN(c2ccc(NC(=O)c3ccc(C(C)(C)C)cc3)cc2)CC1 | inconclusive: 10 µM [activator, partial curve] |
| Cc1ccc(S(=O)(=O)N2CCCC2C(=O)OCC(=O)Nc2ccc3c(c2)OCO3)cc1 (stereo unspecified) | inactive |
| C/C(=N/NC(=O)CN1CCN(Cc2ccccc2Cl)CC1)c1ccco1 | inconclusive: 11.2 µM [activator, partial curve, poor fit] |

Some of these compounds in order of number of heavy atoms, low to high:

| SMILES | Potency |
| --- | --- |
| CC1C/C(=N\NC(=S)NC(C)C)CC(C)(C)C1 (stereo unspecified) | active: 1.58 µM |
| COc1cccc(OC)c1C(=O)Nc1ccccc1N1CCCCC1 | inconclusive: 12.6 µM [activator, single point] |
| CC(=O)c1cccc(N(C(=O)c2ccco2)C(C(=O)NC2CCCCC2)c2ccc(C)o2)c1 (stereo unspecified) | inconclusive: 0.0282 µM [activator, full curve, poor fit] |

Next part.

| SMILES | Potency |
| --- | --- |
| O=c1c2c(n3nnnc3n1Cc1ccccc1)-c1ccccc1CC21CCCC1 | inactive |
| Cc1ccc(Cl)cc1NC(=S)NCc1cccn1C | active: 7.08 µM |
| CC(C/C=N/NC(=O)COc1cc(Cl)ccc1Cl)c1ccccc1 (stereo unspecified) | inconclusive: 22.4 µM [inhibitor, single point] |
| COC(=O)CSc1nc2ccc(NC(=O)c3ccccc3C(=O)N3CCOCC3)cc2s1 | inconclusive: 2 µM [activator, full curve] |
| O=C(c1ccco1)n1nc(-c2ccco2)nc1SCc1ccccc1 | inactive |
| COc1cc(-c2nnc3sc(C4CCCCC4)nn23)cc(OC)c1OC | inconclusive: 2.82 µM [inhibitor, partial curve, poor fit] |
| COc1ccc(C(O)c2nccn2Cc2ccccc2)cc1OC (stereo unspecified) | inconclusive: 15.8 µM [activator, single point] |
| Cn1cc(/C=N/NC(=O)c2ccc(C#N)cc2F)c2ccccc21 | active: 5.01 µM |
| CCN(/N=C/c1cccs1)c1cc(=O)n(C)c(=O)[nH]1 | inactive |
| COc1ccc(-c2ccc(SCC(=O)NC3CCCCC3)nn2)cc1OC | inactive |
| NC1=NC[C@H](Cc2ccc(O)cc2)N1CCC12CC3CC(CC(C3)C1)C2 | inactive |
| CCN1C(=O)CSc2ccc(C(=O)NCc3ccco3)cc21 | inconclusive: 35.5 µM [inhibitor, single point] |
| O=C(C#Cc1ccccc1)Nc1ccccc1F | inconclusive: 35.5 µM [inhibitor, single point] |
| O=S(=O)(c1ccc2oc3ccccc3c2c1)N1CCOCC1 | inactive |
| CC(C)N(C(=O)Cn1c(SCC(=O)NC2CC2)nc2ccccc21)C(C)C | inactive |
| O=C(NC(=S)Nc1cccc(C(F)(F)F)c1)c1csnn1 | inconclusive: 20 µM [inhibitor, single point] |
| COc1ccc(Oc2ncc3nc(C)c(=O)n(Cc4cccs4)c3n2)cc1 | inconclusive: 12.6 µM [activator, single point] |
| Cc1ccccc1CN1CCc2c(OCC(=O)N3CCCCC3)cccc2C1=O | inconclusive: 12.6 µM [activator, single point] |
| CN(c1ccccc1)S(=O)(=O)c1cccc(NC(=O)Nc2ccc(Cl)cc2C#N)c1 | inconclusive: 12.6 µM [activator, partial curve] |
| O=[N+]([O-])c1ccc(-c2nc(-c3cccs3)c(-c3cccs3)[nH]2)cc1 | inconclusive: 35.5 µM [inhibitor, single point] |
| COc1ccccc1NC(=O)CN1CCC(c2nc3ccc(C)cc3[nH]2)CC1 | inactive |
| COc1ccc(OC)c(NC(=O)CCCN2C(=S)NC(C)(C)CC2C)c1 (stereo unspecified) | active: 11.2 µM |
| O=S(=O)(c1ccccc1)N1CCN(C/C=C/c2ccccc2)CC1 | inconclusive: 17.8 µM [activator, single point] |
| CCc1ccc2ncc(S(=O)(=O)c3ccc(C)c(C)c3)c(N3CCCC3)c2c1 | inconclusive: 31.6 µM [activator, single point] |

3 entries picked at random from the list so far, as already listed:

| SMILES | Potency |
| --- | --- |
| CCN1C(=O)CSc2ccc(C(=O)NCc3ccco3)cc21 | inconclusive: 35.5 µM [inhibitor, single point] |
| O=[N+]([O-])c1ccc(-c2nc(-c3cccs3)c(-c3cccs3)[nH]2)cc1 | inconclusive: 35.5 µM [inhibitor, single point] |
| COc1ccc(OC)c(NC(=O)CCCN2C(=S)NC(C)(C)CC2C)c1 (stereo unspecified) | active: 11.2 µM |

Going on with the list.

| SMILES | Potency |
| --- | --- |
| CC(C)Sc1nc2ccccc2c(=O)[nH]1 | inactive |
| COc1ccc(C(=O)Nc2ccccc2C(=O)Nc2ccc(C(=O)O)cc2)cc1 | inconclusive: 35.5 µM [inhibitor, single point] |
| O=C(CCCSc1nnnn1-c1cccc2ccccc12)c1ccc(F)cc1 | inconclusive: 10 µM [activator, partial curve] |
| Cc1ccc(C)c(C(=O)COC(=O)CN2C(=O)C3C4C=CC(C4)C3C2=O)c1 (stereo unspecified) | inactive |
| CN(C(=O)c1cc(-c2ccc3c(c2)OCO3)on1)c1ccccc1 | inconclusive: 6.31 µM [activator, partial curve, poor fit] |
| Cc1nsc2nc3c(F)c(F)c(F)c(F)c3cc12 | inconclusive: 35.5 µM [inhibitor, single point] |
| COC(=O)N1CC=CC1(C)C(=O)NCc1ccc(C)o1 (stereo unspecified) | inconclusive: 35.5 µM [inhibitor, single point] |
| COC(=O)COc1ccc(S(=O)(=O)N2CCCCCC2)cc1C | inconclusive: 0.0708 µM [activator, partial curve, poor fit] |
| CCNC(=O)C1CCCN1S(=O)(=O)c1ccc(C)cc1 (stereo unspecified) | inactive |
| CN(C)CCNC(=S)NC1CCCCC1 | inactive |
| COCc1c(N)c(C)nc(Cl)c1C#N | inconclusive: 11.2 µM [activator, single point] |
| O=C(N/N=C/c1ccc([N+](=O)[O-])o1)c1cc2ccccc2o1 | inconclusive: 11.2 µM [inhibitor, single point] |
| CCn1c(C)nc2cc(C(=O)NNC(=O)c3ccc(Cl)nc3)ccc21 | inconclusive: 3.16 µM [inhibitor, partial curve] |
| CC1C(=O)Nc2ccccc2N1C(=O)c1cccc(C(F)(F)F)c1 (stereo unspecified) | inactive |
| C/C(=N\NC(=O)c1n[nH]c2c1CCC2)c1cccs1 | active: 2.51 µM |
| CCN(CC)C(=O)CSc1nnc(SCc2ccc(Cl)cc2)s1 | inconclusive: 6.31 µM [activator, partial curve, poor fit] |
| O=C(COc1ccc(F)cc1Cl)Nc1cc(S(=O)(=O)N2CCOCC2)ccc1N1CCCCC1 | inconclusive: 28.2 µM [activator, single point] |
| O=C(CCCSc1nnc(SCCCC(=O)c2ccc(F)cc2)s1)c1ccc(F)cc1 | inconclusive: 35.5 µM [activator, single point] |
| Cc1onc(-c2ccccc2Cl)c1C(=O)Nc1ccc(S(=O)(=O)Nc2nccs2)cc1 | inconclusive: 10 µM [activator, partial curve] |
| COc1ccc(N(C(=O)c2snc(C(N)=O)c2N)C(C(=O)NC2CCCC2)c2ccco2)c(OC)c1 (stereo unspecified) | inconclusive: 20 µM [activator, single point] |
| CC1CCCCC1NC(=O)/C(C#N)=C/c1ccc(OCC(N)=O)cc1 (stereo unspecified) | inconclusive: 35.5 µM [activator, single point] |
| CC/C(=N\NC(=O)c1ccc(Br)cc1)c1ccccc1 | inconclusive: 35.5 µM [inhibitor, single point] |
| COc1ccc(C2=C(C=C(C#N)C#N)C(c3ccccc3C)c3ccccc3O2)cc1OC (stereo unspecified) | inconclusive: 35.5 µM [activator, single point] |
